Measurements reported in PubChem BioAssay AID1259254 (NCATS, 2017).

Assay: 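Finding genes that stop cells copying their DNA twice in one cycle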 (primary screen)
Cell system: human HCT116 colorectal cancer cells
Reagents: single siRNA against human genes
Timing: 3 days
Measured: 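Nuclei stained with Hoechst and imaged; cell-cycle phase assigned by DNA content; G2 share scaled per plate, non-targeting siRNA 0%, GMNN siRNA 100%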
Direction: G2 robust z-score: higher = more G2 cells, more excess DNA replication
Call rule: 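Active siRNAs have a G2 robust z of 5 or more median absolute deviations over the median, which in these data means about 38% or higher of GMNN control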
The deposit covers about 59,000 reagents; this is an unselected part. About 1,550 of them (2.6%) count as active. 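G2 share is only a proxy for re-replication; each gene was hit by three separate siRNAs, and active genes were retested.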 A number with no mark means an inactive call. The numbers tell different reagents against one gene apart. Not all columns of the deposit are shown. The record does not give: the amount of reagent.

HS3ST6 #1 → G2 robust z-score: 5.27 (active)
HS3ST6 #2 → G2 robust z-score: -0.766
HS3ST6 #3 → G2 robust z-score: -0.513
SOS1 #1 → G2 robust z-score: -0.524
SOS1 #2 → G2 robust z-score: -0.616
SOS1 #3 → G2 robust z-score: 0.126
SCRN3 #1 → G2 robust z-score: -0.684
SCRN3 #2 → G2 robust z-score: 0.68
SCRN3 #3 → G2 robust z-score: 2.43
CCDC42 #1 → G2 robust z-score: 2.05
CCDC42 #2 → G2 robust z-score: 0.132
CCDC42 #3 → G2 robust z-score: -0.654

Part of the list above, set out differently.
HS3ST6 #3
- G2 robust z-score: -0.513

SOS1 #1
- G2 robust z-score: -0.524

SOS1 #2
- G2 robust z-score: -0.616

The listing continues:
SDF4 #1 → G2 robust z-score: -0.21
SDF4 #2 → G2 robust z-score: 0.69
SDF4 #3 → G2 robust z-score: -0.863
CLIP1 #1 → G2 robust z-score: -0.661
CLIP1 #2 → G2 robust z-score: 1.09
CLIP1 #3 → G2 robust z-score: 2.62
ZFP90 #1 → G2 robust z-score: -0.49
ZFP90 #2 → G2 robust z-score: 3.91
ZFP90 #3 → G2 robust z-score: 0.378
PIGP #1 → G2 robust z-score: 0.241
PIGP #2 → G2 robust z-score: 0.257
PIGP #3 → G2 robust z-score: 0.342
FGB #1 → G2 robust z-score: 0.335
FGB #2 → G2 robust z-score: 1.78
FGB #3 → G2 robust z-score: -0.782
CRISP1 #1 → G2 robust z-score: 0.31
CRISP1 #2 → G2 robust z-score: -0.19
CRISP1 #3 → G2 robust z-score: 2.06
